Literature values in patent publication US8017321B2, “Gefitinib sensitivity-related gene expression and products and methods related thereto” (The Regents of the University of Colorado, A Body Corporate, priority 2005, dated 2011).
For at least one compound, name, drawing or mass did not settle the structure.

Test system: E-cadherin
Settings: NSCLC cell lines; cited from earlier work

[Li] [lithium]
E-cadherin expression: increased E-cadherin expression
